# Results are given in words; binding and its absence hold for the method and conditions named.
# Amino acid sequences for entries named in this document (tags omitted). A change or cut given only in a name is not applied to a line headed by its entry. Residues count along the entry.
# UniProt P02769, residues 25-607: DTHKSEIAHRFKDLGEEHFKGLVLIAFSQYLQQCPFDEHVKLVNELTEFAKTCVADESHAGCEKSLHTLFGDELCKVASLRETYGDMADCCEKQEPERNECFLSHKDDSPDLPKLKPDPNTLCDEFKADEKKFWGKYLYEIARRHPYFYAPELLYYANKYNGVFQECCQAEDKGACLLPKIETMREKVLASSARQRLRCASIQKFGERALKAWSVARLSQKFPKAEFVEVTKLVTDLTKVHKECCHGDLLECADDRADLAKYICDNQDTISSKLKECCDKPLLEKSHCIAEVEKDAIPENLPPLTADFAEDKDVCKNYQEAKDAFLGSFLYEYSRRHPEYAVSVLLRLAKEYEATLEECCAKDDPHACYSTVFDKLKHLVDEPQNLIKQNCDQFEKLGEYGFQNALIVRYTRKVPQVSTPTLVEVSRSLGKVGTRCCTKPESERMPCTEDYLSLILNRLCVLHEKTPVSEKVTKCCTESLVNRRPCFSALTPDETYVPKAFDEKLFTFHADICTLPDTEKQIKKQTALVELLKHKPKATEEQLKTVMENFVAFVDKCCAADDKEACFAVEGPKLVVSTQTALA
# UniProt Q9NNX6, residues 64-404: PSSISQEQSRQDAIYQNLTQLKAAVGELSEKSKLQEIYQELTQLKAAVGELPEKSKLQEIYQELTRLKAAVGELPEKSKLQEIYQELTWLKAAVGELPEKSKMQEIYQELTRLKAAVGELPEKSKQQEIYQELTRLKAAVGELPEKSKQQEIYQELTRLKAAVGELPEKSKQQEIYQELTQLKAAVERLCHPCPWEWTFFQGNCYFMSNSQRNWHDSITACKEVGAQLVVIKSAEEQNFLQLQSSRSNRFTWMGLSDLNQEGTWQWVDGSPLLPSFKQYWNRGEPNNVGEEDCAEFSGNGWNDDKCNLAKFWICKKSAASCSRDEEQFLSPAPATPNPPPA
# Target: bovine serum albumin (bovine) (UniProt P02769)
# Assay: ELISA; Nunc MaxiSorp wells, blocked with 1% BSA in TMS; DC-SIGN-Fc 3 μg/mL in TMS (20 mM Tris-HCl pH 8.0, 150 mM NaCl, 1 mM CaCl2, 2 mM MgCl2) with 1% BSA, 1 h at 37°C; detected with goat anti-human HRP, OD at 450 nm
substance,measurement,value
recombinant chimera protein DC-SIGN-Fc (from UniProt Q9NNX6 64-404) (Fc fusion),binding,no binding (tested: 3 μg/mL DC-SIGN-Fc)

# From paper PMC3754922
